Source: the supplement of paper PMC9433722
Counter-ions that a name gives are not always drawn. Some of the results follow. Many values rest on one well or one pass, so single values are uncertain.

Tests used:
Saos-2 = experiment: cell viability (CCK-8) relative to DMSO control (% of control); higher = less cytotoxic; conditions: 10 µM; 48 h
U2OS = experiment: as above; conditions: 10 µM; 48 h

Compound	cell viability (Saos-2)	cell viability (U2OS)
C[C@]12C=CC(=O)N[C@@H]1CC[C@@H]1[C@@H]2CC[C@]2(C)[C@@H](C(=O)Nc3cc(C(F)(F)F)ccc3C(F)(F)F)CC[C@@H]12 [Dutasteride]	109	74.4
Cc1ccccc1C(OCCN(C)C)c1ccccc1 (stereo not drawn) [Orphenadrine citrate]	69.1	101
CC(C)(C)NCC(O)c1cc(O)cc(O)c1 (stereo not drawn) [Terbutaline Hemisulfate]	106	97.4
CC/C(=C(\c1ccccc1)c1ccc(OCCN(C)C)cc1)c1ccccc1 [Tamoxifen . citrate]	59.3	104
CN(C)CC(c1ccc(O)cc1)C1(O)CCCCC1 (stereo not drawn) [Desvenlafaxine Succinate Hydrate]	114	105
CCC1(c2ccccc2)C(=O)NCNC1=O [Primidone]	97.9	79.6
Cc1cccc(Nc2ccccc2C(=O)O)c1C [Mefenamic Acid]	70.8	90.6
C[C@]12C=CC(=O)C=C1CC[C@@H]1[C@@H]2C(=O)C[C@@]2(C)[C@H]1CC[C@]2(O)C(=O)CO [Prednisone]	66.9	107
OC(Cn1cncn1)(Cn1cncn1)c1ccc(F)cc1F [Fluconazole]	69.5	113
C[C@H](CS)C(=O)N1CCC[C@H]1C(=O)O [Captopril]	57.6	105
Nc1cc(-c2ccncc2)c[nH]c1=O [Amrinone]	66.7	97.4
N[C@@H]1CONC1=O [Cycloserine]	113	95.2
Cc1cccc(C)c1NC(=O)C1CCCCN1C (racemic) [(±)-Mepivacaine hydrochloride]	104	103
CNCCCC12CCC(c3ccccc31)c1ccccc12 [Maprotiline·HCl]	52.1	110
C[C@]12CCC(=O)C=C1CC[C@@H]1[C@@H]2[C@@H](O)C[C@@]2(C)[C@H]1CC[C@]2(O)C(=O)CO [Hydrocortisone]	72.1	102
O=C1c2c(O)ccc(O)c2C(=O)c2c(NCCNCCO)ccc(NCCNCCO)c21 [Mitoxantrone . dihydrochloride]	15.8	14.1
O=C(O)C(=O)O.[NH-][C@@H]1CCCC[C@H]1[NH-].[Pt+2] [Oxaliplatin]	53.1	71.8
CCCCC[C@H](O)/C=C/[C@H]1[C@H](O)CC(=O)[C@@H]1CCCCCCC(=O)O [Prostaglandin E1]	64.8	101
CCC1(C)CC(=O)NC1=O (stereo not drawn) [Ethosuximide]	109	97

One compound at a time (already shown):
C[C@]12CCC(=O)C=C1CC[C@@H]1[C@@H]2[C@@H](O)C[C@@]2(C)[C@H]1CC[C@]2(O)C(=O)CO [Hydrocortisone] is listed with cell viability (Saos-2): 72.1; cell viability (U2OS): 102
CC(C)(C)NCC(O)c1cc(O)cc(O)c1 (stereo not drawn) [Terbutaline Hemisulfate] is listed with cell viability (Saos-2): 106; cell viability (U2OS): 97.4
